The other results are listed elsewhere or left out. Most entries show no effect beyond the scatter of the controls.
compound: CN[C@@H]1C[C@H]2O[C@@](C)([C@@H]1OC)n1c3ccccc3c3c4c(c5c6ccccc6n2c5c31)C(=O)NC4 [staurosporine]; test: log2 fold change of tryptic peptide abundance, ligand vs vehicle (limited proteolysis) (log2 ratio); higher = more trypsin-susceptible (destabilized); conditions: ligand concentration: 20 uM; sample: mouse liver crude lysate; replicate design: treated separately

Protein sequences, listed by entry. Tags and fused reporters are not part of them. Lines headed by an entry give the natural chain unless they say otherwise; changes in a name come on top.
UniProt P48771: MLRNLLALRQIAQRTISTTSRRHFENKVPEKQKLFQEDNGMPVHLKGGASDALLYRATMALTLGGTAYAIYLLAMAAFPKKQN
UniProt P39039: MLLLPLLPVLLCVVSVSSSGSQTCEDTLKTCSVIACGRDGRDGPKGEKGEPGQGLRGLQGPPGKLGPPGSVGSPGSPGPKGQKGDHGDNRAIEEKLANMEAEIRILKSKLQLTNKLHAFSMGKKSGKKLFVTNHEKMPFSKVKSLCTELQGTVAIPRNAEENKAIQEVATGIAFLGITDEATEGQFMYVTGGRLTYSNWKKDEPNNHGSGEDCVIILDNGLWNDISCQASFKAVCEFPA
UniProt P35456: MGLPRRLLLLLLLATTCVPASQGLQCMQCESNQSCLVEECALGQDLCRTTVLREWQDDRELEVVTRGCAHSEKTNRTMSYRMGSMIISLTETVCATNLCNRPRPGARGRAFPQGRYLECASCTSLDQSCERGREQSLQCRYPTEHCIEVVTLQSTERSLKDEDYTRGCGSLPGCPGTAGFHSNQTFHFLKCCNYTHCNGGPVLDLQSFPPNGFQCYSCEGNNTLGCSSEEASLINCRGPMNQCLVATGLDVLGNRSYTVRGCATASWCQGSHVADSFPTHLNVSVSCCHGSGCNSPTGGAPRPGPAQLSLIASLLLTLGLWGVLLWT
UniProt P38585: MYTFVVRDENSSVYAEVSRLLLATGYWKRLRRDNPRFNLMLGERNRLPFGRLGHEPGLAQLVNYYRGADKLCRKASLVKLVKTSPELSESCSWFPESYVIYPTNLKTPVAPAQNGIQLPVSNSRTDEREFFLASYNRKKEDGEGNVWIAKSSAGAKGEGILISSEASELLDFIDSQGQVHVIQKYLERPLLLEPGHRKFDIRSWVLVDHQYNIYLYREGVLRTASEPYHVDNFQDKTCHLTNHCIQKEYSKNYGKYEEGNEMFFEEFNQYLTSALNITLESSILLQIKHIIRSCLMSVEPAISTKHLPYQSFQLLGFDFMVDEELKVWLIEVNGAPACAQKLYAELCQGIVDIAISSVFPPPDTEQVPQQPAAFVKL
UniProt P53811: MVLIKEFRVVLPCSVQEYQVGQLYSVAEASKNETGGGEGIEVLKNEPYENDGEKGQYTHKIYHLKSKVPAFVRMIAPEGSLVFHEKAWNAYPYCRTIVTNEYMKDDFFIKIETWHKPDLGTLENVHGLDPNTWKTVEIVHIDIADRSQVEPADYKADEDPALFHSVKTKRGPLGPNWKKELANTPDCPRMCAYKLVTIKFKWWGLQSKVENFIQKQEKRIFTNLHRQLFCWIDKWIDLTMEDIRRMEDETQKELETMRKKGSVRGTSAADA
UniProt P40936: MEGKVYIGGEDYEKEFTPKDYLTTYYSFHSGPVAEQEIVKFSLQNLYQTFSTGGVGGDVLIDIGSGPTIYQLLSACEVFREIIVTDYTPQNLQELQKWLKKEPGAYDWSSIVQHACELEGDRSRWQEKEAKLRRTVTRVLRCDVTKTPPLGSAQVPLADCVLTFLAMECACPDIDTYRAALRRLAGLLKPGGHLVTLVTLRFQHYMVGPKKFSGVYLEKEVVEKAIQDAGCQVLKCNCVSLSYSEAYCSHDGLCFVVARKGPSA
UniProt P51880: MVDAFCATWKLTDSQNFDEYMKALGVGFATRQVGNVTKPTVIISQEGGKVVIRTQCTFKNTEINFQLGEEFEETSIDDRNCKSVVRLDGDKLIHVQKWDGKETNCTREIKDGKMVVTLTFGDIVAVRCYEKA
UniProt P43136: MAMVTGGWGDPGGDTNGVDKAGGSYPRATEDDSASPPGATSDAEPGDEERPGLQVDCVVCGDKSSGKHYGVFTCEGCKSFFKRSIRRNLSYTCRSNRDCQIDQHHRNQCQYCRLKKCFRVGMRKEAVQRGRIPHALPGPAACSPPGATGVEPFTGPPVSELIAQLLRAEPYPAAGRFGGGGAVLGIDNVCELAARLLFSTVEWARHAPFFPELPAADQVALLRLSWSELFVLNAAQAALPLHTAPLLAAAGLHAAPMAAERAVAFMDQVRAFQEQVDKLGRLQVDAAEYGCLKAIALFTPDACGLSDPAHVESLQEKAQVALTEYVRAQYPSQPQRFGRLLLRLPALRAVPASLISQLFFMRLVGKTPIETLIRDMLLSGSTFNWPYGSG
UniProt P35710: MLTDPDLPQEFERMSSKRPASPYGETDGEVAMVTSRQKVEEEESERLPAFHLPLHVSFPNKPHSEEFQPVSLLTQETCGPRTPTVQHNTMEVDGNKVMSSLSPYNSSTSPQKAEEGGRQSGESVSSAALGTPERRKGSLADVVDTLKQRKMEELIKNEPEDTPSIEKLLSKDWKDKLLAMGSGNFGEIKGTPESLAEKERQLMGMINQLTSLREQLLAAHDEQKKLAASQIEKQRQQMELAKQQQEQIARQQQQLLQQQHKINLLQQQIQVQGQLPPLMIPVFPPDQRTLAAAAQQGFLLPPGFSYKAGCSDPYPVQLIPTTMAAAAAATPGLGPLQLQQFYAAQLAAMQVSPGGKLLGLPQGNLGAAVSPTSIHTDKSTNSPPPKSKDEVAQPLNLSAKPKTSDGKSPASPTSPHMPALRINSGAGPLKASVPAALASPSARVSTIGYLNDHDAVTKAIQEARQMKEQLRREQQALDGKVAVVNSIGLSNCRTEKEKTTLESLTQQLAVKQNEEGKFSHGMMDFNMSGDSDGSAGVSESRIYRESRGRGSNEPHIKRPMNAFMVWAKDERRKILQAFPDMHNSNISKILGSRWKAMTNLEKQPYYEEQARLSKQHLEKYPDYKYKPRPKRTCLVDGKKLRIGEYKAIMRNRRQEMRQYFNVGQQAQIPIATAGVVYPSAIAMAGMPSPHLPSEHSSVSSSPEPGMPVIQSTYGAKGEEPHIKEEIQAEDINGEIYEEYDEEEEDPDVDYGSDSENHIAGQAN
UniProt P52633: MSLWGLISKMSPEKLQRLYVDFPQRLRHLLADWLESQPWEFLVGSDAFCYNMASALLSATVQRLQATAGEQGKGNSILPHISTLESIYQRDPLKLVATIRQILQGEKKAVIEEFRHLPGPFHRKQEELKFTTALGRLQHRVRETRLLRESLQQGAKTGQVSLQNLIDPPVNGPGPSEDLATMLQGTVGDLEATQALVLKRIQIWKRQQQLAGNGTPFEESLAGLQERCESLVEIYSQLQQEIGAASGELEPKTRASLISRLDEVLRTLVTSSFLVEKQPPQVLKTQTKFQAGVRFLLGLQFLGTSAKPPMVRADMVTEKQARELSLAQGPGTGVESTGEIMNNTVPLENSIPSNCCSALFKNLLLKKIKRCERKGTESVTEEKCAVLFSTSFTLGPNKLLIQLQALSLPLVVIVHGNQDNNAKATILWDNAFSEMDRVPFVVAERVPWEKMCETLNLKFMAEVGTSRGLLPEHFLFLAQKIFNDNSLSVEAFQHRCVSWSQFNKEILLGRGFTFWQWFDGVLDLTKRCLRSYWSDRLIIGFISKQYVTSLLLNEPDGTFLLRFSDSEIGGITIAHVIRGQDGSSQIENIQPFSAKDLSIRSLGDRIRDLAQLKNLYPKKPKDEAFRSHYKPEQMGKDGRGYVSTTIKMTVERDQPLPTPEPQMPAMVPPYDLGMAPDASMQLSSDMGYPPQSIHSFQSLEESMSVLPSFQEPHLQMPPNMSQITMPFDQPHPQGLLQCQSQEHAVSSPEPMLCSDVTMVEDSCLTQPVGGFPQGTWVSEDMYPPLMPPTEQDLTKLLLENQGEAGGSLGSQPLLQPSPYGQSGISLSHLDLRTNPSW
UniProt P46737, whole entry: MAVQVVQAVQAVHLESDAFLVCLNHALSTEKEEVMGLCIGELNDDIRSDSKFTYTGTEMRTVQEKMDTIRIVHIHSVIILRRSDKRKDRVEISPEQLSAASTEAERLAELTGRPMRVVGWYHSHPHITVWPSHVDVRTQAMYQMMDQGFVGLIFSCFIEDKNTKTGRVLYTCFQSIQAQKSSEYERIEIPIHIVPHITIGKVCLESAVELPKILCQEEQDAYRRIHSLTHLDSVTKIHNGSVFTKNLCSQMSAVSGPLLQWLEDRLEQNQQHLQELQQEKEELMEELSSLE
UniProt P39688, whole entry: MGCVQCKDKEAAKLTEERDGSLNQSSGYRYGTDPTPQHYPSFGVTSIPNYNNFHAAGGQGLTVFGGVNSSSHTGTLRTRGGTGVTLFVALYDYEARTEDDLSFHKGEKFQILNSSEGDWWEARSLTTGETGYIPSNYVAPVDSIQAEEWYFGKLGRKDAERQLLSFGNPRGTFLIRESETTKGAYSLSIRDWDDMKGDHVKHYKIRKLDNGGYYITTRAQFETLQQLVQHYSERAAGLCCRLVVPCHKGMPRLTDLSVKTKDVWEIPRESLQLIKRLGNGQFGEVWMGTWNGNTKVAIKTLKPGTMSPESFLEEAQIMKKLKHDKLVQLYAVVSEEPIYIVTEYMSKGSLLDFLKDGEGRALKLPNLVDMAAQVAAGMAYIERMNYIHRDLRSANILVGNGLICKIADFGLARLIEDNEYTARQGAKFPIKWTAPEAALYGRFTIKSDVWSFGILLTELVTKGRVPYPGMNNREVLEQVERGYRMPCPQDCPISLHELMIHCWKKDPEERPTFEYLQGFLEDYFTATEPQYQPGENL
UniProt P46460: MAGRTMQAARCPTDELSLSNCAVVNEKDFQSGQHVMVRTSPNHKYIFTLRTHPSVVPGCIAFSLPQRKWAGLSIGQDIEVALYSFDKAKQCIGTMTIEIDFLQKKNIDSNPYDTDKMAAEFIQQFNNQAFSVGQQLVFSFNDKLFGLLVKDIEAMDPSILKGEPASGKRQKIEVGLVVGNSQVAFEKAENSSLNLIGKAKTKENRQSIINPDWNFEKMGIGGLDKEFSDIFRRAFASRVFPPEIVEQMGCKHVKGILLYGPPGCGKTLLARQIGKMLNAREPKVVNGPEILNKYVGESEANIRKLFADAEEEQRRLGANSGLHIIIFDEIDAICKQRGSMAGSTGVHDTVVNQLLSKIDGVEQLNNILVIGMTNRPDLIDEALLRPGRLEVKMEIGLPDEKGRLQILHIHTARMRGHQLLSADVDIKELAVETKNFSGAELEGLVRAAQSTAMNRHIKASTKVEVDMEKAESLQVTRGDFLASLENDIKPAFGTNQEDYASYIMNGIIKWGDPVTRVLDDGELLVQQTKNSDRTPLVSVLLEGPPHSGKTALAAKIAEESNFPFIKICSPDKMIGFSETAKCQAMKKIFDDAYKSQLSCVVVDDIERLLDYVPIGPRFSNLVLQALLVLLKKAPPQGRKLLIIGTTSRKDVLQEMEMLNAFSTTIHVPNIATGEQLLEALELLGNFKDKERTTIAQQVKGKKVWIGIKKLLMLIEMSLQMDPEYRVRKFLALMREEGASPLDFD
UniProt P35918, whole entry: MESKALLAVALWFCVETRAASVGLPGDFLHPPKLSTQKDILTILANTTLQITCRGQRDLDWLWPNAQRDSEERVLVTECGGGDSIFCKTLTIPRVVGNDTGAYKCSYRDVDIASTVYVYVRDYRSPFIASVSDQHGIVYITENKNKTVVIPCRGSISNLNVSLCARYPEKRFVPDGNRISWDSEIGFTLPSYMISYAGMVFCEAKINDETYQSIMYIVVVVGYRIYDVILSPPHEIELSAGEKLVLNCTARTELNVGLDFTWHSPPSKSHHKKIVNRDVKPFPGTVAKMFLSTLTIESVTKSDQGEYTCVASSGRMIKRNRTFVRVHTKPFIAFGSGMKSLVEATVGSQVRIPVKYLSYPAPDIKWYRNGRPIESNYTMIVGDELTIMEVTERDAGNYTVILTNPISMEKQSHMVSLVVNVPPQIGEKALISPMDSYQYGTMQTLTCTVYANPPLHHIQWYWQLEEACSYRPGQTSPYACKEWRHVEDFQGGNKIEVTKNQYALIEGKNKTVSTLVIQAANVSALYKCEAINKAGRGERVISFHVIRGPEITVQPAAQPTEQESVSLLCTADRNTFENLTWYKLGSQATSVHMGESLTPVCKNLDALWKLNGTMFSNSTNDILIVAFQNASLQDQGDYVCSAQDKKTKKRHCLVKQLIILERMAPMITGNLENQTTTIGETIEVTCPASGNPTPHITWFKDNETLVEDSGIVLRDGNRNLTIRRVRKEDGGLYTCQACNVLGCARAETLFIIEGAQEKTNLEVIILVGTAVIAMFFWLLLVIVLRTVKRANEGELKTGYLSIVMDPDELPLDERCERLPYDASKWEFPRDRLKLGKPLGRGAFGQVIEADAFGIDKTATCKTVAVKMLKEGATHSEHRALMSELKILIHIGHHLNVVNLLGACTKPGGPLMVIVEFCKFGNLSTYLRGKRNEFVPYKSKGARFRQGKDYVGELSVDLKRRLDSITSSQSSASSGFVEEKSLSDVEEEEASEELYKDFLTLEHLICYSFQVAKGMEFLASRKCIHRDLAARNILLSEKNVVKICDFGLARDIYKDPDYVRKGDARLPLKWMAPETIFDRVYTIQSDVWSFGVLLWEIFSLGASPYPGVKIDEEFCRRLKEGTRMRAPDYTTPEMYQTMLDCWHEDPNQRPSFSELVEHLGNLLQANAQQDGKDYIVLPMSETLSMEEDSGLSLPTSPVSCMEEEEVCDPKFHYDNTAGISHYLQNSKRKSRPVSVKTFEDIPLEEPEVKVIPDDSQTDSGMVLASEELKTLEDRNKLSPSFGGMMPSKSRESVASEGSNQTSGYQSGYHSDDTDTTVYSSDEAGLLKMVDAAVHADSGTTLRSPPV

Question: “UniProt P48774 (peptide sequence: YICGEAPDYDR, peptide start residue: 36)” was tested. Which log2 fold change did it give?
Answer: The log2 fold change was 0.164.

Question: How did the log2 fold change turn out when “UniProt P49312 (peptide sequence: YHTVNGHNCEVR, peptide start residue: 167)” was run?
Answer: Its log2 fold change is 0.377.

Question: With “UniProt P48771 (peptide sequence: QKLFQEDNGMPVHLK, peptide start residue: 32)” as the target, how does the log2 fold change read?
Answer: Its log2 fold change is -0.377.

Question: For “UniProt P39039 (peptide sequence: VKSLCTELQGTVAIPR, peptide start residue: 142)”, which log2 fold change is on record?
Answer: Its log2 fold change is 0.408.

Question: “UniProt P35456 (peptide sequence: SLKDEDYTR, peptide start residue: 158)” was tested. Which log2 fold change did it give?
Answer: Its log2 fold change is -0.369.

Question: “UniProt P38585 (peptide sequence: LGHEPGLAQLVNYYR, peptide start residue: 52)” was tested. Which log2 fold change did it give?
Answer: The log2 fold change was 0.315.

Question: With “UniProt P49586 (peptide sequence: SIDLIQKWEEK, peptide start residue: 271)” as the target, how does the log2 fold change read?
Answer: Its log2 fold change is -0.247.

Question: How did the log2 fold change turn out when “UniProt P48036 (peptide sequence: LYDAYELK, peptide start residue: 88)” was run?
Answer: Its log2 fold change is -0.387.

Question: Which log2 fold change does the source give for “UniProt P35922 (peptide sequence: VGPNSSEEKK, peptide start residue: 345)” here?
Answer: Its log2 fold change is -0.154.

Question: For “UniProt P46935 (peptide sequence: TGGSEIVVTNK, peptide start residue: 704)”, which log2 fold change is on record?
Answer: The log2 fold change was -0.565.

Question: How did the log2 fold change turn out when “UniProt P50543 (peptide sequence: NQKDPGVLDR, peptide start residue: 48)” was run?
Answer: Its log2 fold change is 0.0603.

Question: “UniProt P53811 (peptide sequence: TVEIVHIDIADR, peptide start residue: 135)” was tested. Which log2 fold change did it give?
Answer: The log2 fold change was -0.45.

Question: With “UniProt P46718 (peptide sequence: DIPDCPCGAK, peptide start residue: 276)” as the target, how does the log2 fold change read?
Answer: Its log2 fold change is 0.27.

Question: “UniProt P40936 (peptide sequence: VLRCDVTK, peptide start residue: 139)” was tested. Which log2 fold change did it give?
Answer: The log2 fold change was -0.668.

Question: “UniProt P51908 (peptide sequence: IPPHLLWATGLK, peptide start residue: 218)” was tested. Which log2 fold change did it give?
Answer: The log2 fold change was -0.511.

Question: For “UniProt P50516 (peptide sequence: LPANHPLLTGQR, peptide start residue: 221)”, which log2 fold change is on record?
Answer: The log2 fold change was 0.7.

Question: “UniProt P51880 (peptide sequence: QVGNVTKPTVIISQEGGK, peptide start residue: 32)” was tested. Which log2 fold change did it give?
Answer: The log2 fold change was 0.303.

Question: For “UniProt P43407 (peptide sequence: KPSSAAYQK, peptide start residue: 186)”, which log2 fold change is on record?
Answer: The log2 fold change was -0.147.

Question: Which log2 fold change does the source give for “UniProt P43136 (peptide sequence: AFQEQVDK, peptide start residue: 271)” here?
Answer: Its log2 fold change is 0.382.

Question: “UniProt P48678 (peptide sequence: SYLLGNSSPR, peptide start residue: 646)” was tested. Which log2 fold change did it give?
Answer: The log2 fold change was 0.286.

Question: Which log2 fold change does the source give for “UniProt P42208 (peptide sequence: GRLYPWGVVEVENPEHNDFLK, peptide start residue: 255)” here?
Answer: The log2 fold change was -0.585.

Question: “UniProt P35710 (peptide sequence: GTPESLAEKER, peptide start residue: 190)” was tested. Which log2 fold change did it give?
Answer: The log2 fold change was 0.169.

Question: For “UniProt P53762 (peptide sequence: QQQQQHTELDMVPGR, peptide start residue: 503)”, which log2 fold change is on record?
Answer: Its log2 fold change is -0.285.

Question: How did the log2 fold change turn out when “UniProt P35689 (peptide sequence: ISCSDVPDLVRDPPHGR, peptide start residue: 1109)” was run?
Answer: Its log2 fold change is 0.191.

Question: With “UniProt P52633 (peptide sequence: SHYKPEQMGK, peptide start residue: 627)” as the target, how does the log2 fold change read?
Answer: Its log2 fold change is -0.358.

Question: Which log2 fold change does the source give for “UniProt P46737 (peptide sequence: IHSLTHLDSVTK, peptide start residue: 225)” here?
Answer: Its log2 fold change is 0.104.

Question: “UniProt P42230 (peptide sequence: LGHYATQLQNTYDRCPMELVR, peptide start residue: 87)” was tested. Which log2 fold change did it give?
Answer: The log2 fold change was 0.603.

Question: “UniProt P53612 (peptide sequence: SDAPDTLLLEK, peptide start residue: 20)” was tested. Which log2 fold change did it give?
Answer: Its log2 fold change is -0.672.

Question: With “UniProt P39688 (peptide sequence: KLDNGGYYITTR, peptide start residue: 214)” as the target, how does the log2 fold change read?
Answer: The log2 fold change was 0.198.

Question: With “UniProt P49429 (peptide sequence: LLRENLK, peptide start residue: 298)” as the target, how does the log2 fold change read?
Answer: Its log2 fold change is -0.363.

Question: For “UniProt P46460 (peptide sequence: GRLQILHIHTAR, peptide start residue: 402)”, which log2 fold change is on record?
Answer: Its log2 fold change is 0.95.

Question: How did the log2 fold change turn out when “UniProt P35492 (peptide sequence: LTVGWLGR, peptide start residue: 22)” was run?
Answer: The log2 fold change was 0.107.

Question: Which log2 fold change does the source give for “UniProt P45448 (peptide sequence: HGLTAIASAPGSETR, peptide start residue: 16)” here?
Answer: The log2 fold change was -0.613.

Question: With “UniProt P50295 (peptide sequence: TLTEILQHQIR, peptide start residue: 23)” as the target, how does the log2 fold change read?
Answer: Its log2 fold change is 0.108.

Question: Which log2 fold change does the source give for “UniProt P46938 (peptide sequence: NINPSTANAPKCQELALR, peptide start residue: 317)” here?
Answer: The log2 fold change was -0.198.

Question: For “UniProt P49891 (peptide sequence: IPYLECR, peptide start residue: 79)”, which log2 fold change is on record?
Answer: Its log2 fold change is -0.106.

Question: For “UniProt P35918 (peptide sequence: LSPSFGGMMPSK, peptide start residue: 1276)”, which log2 fold change is on record?
Answer: Its log2 fold change is -0.108.

Question: “UniProt P47878 (peptide sequence: EGDACGVYTER, peptide start residue: 79)” was tested. Which log2 fold change did it give?
Answer: The log2 fold change was 0.616.

Question: For “UniProt P52825 (peptide sequence: DVWAELR, peptide start residue: 297)”, which log2 fold change is on record?
Answer: The log2 fold change was -0.289.
